This note sets out measurements from patent US20160159919A1.

Results are given in words; binding and its absence hold for the method and conditions named. Some entries that bind do so weakly or less than the wild type.

Assay [1] deals with Human EREG (Biacore analyte) (human) (UniProt O14944). In words: SPR (Biacore T100, Reference Example 24): antibody captured by Protein A, human EREG as analyte; bar = KD of the antibody / KD of chimeric EP27. (In SPR one partner is held on a chip, and binding of the other changes the refractive index at the surface.)
For assay [2] the target is unchanged. The experiment in a line: SPR (Biacore T100, Reference Example 24): antibody captured by Protein A, human EREG as analyte; bar = KD of the antibody / KD of chimeric EP27 (cH-G1/cL-k).
Assay [3] shares this target. The experiment in a line: SPR (Biacore), FIG. 3.
The target in assay [4] is T1, soluble human EREG fragment having a mature EGF domain structure (R&D Systems cat. no. 1195-EP/CF) (human) (UniProt O14944).
T1 sequence: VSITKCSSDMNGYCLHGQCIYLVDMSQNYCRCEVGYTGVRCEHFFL
The experiment in a line: competitive ELISA on coated soluble human EREG fragment. For orientation: In an ELISA, binding on a coated surface is turned into a signal by an enzyme label.

In assay [5] the target is T2, EREG (Epiregulin) expressed on cells (SKE lines derived from SK-HEP-1; DLD-1) (human) (UniProt O14944).
T2 sequence: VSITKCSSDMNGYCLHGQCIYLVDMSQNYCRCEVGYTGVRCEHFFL
In words: immunohistochemical staining of xenograft tissues of SKE cell lines forced to express EREG.

The target in assay [6] is T2, EREG (Epiregulin) expressed on cells (SKE lines derived from SK-HEP-1; DLD-1) (human). The experiment in a line: flow cytometry of the cell lines (upper row) and immunohistochemistry of xenograft sections with the EP27 antibody as primary antibody (lower row, Reference Example 9); the antibody of the flow cytometry is not named separately in the text. (In flow cytometry, cells or beads pass a laser one at a time.)

B1: H111-G1d/LB-k (antibody, human IgG1, kappa, V domains shown)
VH: QDQLVQSGAEVKKPGASVKVSCKASGFNIKDTYIQWVRQAPGQGLEWMGRIDPLRGNTKYREKFEGRVTITADTSTNTAYMELSSLRSEDTAVYYCVRSGTLFDFWGQGTLVTVSS
VL: DIQMTQSPSSLSASVGDRVTITCKASQDIHKYIAWYQQKPGQAPRLLIQYTSTLQPGVPSRFSGSGSGTDYTFTISSLQPEDIATYYCLQYDNLRTFGGGTKVEIKR
Turning to B1, the binding result in assay [1], in assay [2] and in assay [3] was “binds” throughout.

B2: H111-G1d/L48-k (antibody, human IgG1, kappa, V domains shown)
VH: QDQLVQSGAEVKKPGASVKVSCKASGFNIKDTYIQWVRQAPGQGLEWMGRIDPLRGNTKYREKFEGRVTITADTSTNTAYMELSSLRSEDTAVYYCVRSGTLFDFWGQGTLVTVSS
VL: DIQMTQSPSSLSASVGDRVTITCKASQDIHKYIAWYQQKPGQAPRLLIQYTSTLQPGVPSRFSGSGSGTDYTFTISSLQPEDIATYYCLQYDNRRTFGGGTKVEIKR
As for B2, the binding entry in assay [1], in assay [2] and in assay [3] was “binds” in each case.

B3: HY-G1d/L20-k (antibody, human IgG1, kappa, V domains shown)
VH: QDQLVQSGAEVKKPGASVKVSCKASGFNIKDTYIQWVRQAPGQGLEWMGRIDPLNGNTKYVPKFQGRVTITADTSTNTAYMELSSLRSEDTAVYYCVRSGTLFDFWGQGTLVTVSS
VL: DIQMTQSPSSLSASVGDRVTITCQASQDIHKYIAWYQQKPGQAPRLLIQYTSTLEPGVPSRFSGSGSGTDYTFTISSLQPEDIATYYCLQYDNLRTFGGGTKVEIKR
As to B3, the binding result in assay [4] is “binds”.

B4: H133-G1d/LB-k (antibody, human IgG1, kappa, V domains shown)
VH: QDQLVQSGAEVKKPGASVKVSCKASGFNIKDTYIQWVRQAPGQGLEWMGRIDPLRRNTKYREKFEGRVTITADTSTNTAYMELSSLRSEDTAVYYCVRSGTRFDFWGQGTLVTVSS
VL: DIQMTQSPSSLSASVGDRVTITCKASQDIHKYIAWYQQKPGQAPRLLIQYTSTLQPGVPSRFSGSGSGTDYTFTISSLQPEDIATYYCLQYDNLRTFGGGTKVEIKR
Regarding B4, in assay [2], the binding entry was “binds”.

B5: H121-G1d/LB-k (antibody, human IgG1, kappa, V domains shown)
VH: QDQLVQSGAEVKKPGASVKVSCKASGFNIKDTYIQWVRQAPGQGLEWMGRIDPLRGNTKYRERFEGRVTITADTSTNTAYMELSSLRSEDTAVYYCVRSGTLFDFWGQGTLVTVSS
VL: DIQMTQSPSSLSASVGDRVTITCKASQDIHKYIAWYQQKPGQAPRLLIQYTSTLQPGVPSRFSGSGSGTDYTFTISSLQPEDIATYYCLQYDNLRTFGGGTKVEIKR
Consider B5, for which the binding result in assay [1], in assay [2] and in assay [3] was “binds” throughout.

B6: H131-G1d/LB-k (antibody, human IgG1, kappa, V domains shown)
VH: QDQLVQSGAEVKKPGASVKVSCKASGFNIKDTYIQWVRQAPGQGLEWMGRIDPLRRNTKYREKFEGRVTITADTSTNTAYMELSSLRSEDTAVYYCVRSRTLFDFWGQGTLVTVSS
VL: DIQMTQSPSSLSASVGDRVTITCKASQDIHKYIAWYQQKPGQAPRLLIQYTSTLQPGVPSRFSGSGSGTDYTFTISSLQPEDIATYYCLQYDNLRTFGGGTKVEIKR
In the case of B6, the binding result in assay [2] was “binds”.

B7: H112-G1d/LB-k (antibody, human IgG1, kappa, V domains shown)
VH: QDQLVQSGAEVKKPGASVKVSCKASGFNIKDTYIQWVRQAPGQGLEWMGRRDPLRGNTKYREKFEGRVTITADTSTNTAYMELSSLRSEDTAVYYCVRSGTLFDFWGQGTLVTVSS
VL: DIQMTQSPSSLSASVGDRVTITCKASQDIHKYIAWYQQKPGQAPRLLIQYTSTLQPGVPSRFSGSGSGTDYTFTISSLQPEDIATYYCLQYDNLRTFGGGTKVEIKR
Turning to B7, the binding result in assay [2] is given as “binds”.

B8: HY-G1d/L23-k (antibody, human IgG1, kappa, V domains shown)
VH: QDQLVQSGAEVKKPGASVKVSCKASGFNIKDTYIQWVRQAPGQGLEWMGRIDPLNGNTKYVPKFQGRVTITADTSTNTAYMELSSLRSEDTAVYYCVRSGTLFDFWGQGTLVTVSS
VL: DIQMTQSPSSLSASVGDRVTITCKASQDIHKYIAWYQQKPGQAPRLLIQYTSTLQEGVPSRFSGSGSGTDYTFTISSLQPEDIATYYCLQYDNLRTFGGGTKVEIKR
Turning to B8, the binding result in assay [4] was “binds”.

B9: H123-G1d/LB-k (antibody, human IgG1, kappa, V domains shown)
VH: QDQLVQSGAEVKKPGASVKVSCKASGFNIKDTYIQWVRQAPGQGLEWMGRIDPLRGNTKYREKFERRVTITADTSTNTAYMELSSLRSEDTAVYYCVRSGTLFDFWGQGTLVTVSS
VL: DIQMTQSPSSLSASVGDRVTITCKASQDIHKYIAWYQQKPGQAPRLLIQYTSTLQPGVPSRFSGSGSGTDYTFTISSLQPEDIATYYCLQYDNLRTFGGGTKVEIKR
B9: the binding result in assay [1], in assay [2] and in assay [3] was “binds” in each case.

B10: H116-G1d/LB-k (antibody, human IgG1, kappa, V domains shown)
VH: QDQLVQSGAEVKKPGASVKVSCKASGFNIKDTYIQWVRQAPGQGLEWMGRIDPLRRNTKYREKFEGRVTITADTSTNTAYMELSSLRSEDTAVYYCVRSGTLFDFWGQGTLVTVSS
VL: DIQMTQSPSSLSASVGDRVTITCKASQDIHKYIAWYQQKPGQAPRLLIQYTSTLQPGVPSRFSGSGSGTDYTFTISSLQPEDIATYYCLQYDNLRTFGGGTKVEIKR
On to B10, for which the binding entry in assay [1], in assay [2] and in assay [3] was “binds” throughout.

B11: H111-G1d/L47-k (antibody, human IgG1, kappa, V domains shown)
VH: QDQLVQSGAEVKKPGASVKVSCKASGFNIKDTYIQWVRQAPGQGLEWMGRIDPLRGNTKYREKFEGRVTITADTSTNTAYMELSSLRSEDTAVYYCVRSGTLFDFWGQGTLVTVSS
VL: DIQMTQSPSSLSASVGDRVTITCKASQDIHKYIAWYQQKPGQAPRLLIQYTSTLQPGVPSRFSGSGSGTDYTFTISSLQPEDIATYYCLQYDRLRTFGGGTKVEIKR
B11: the binding result in assay [2] is “binds”.

B12: H124-G1d/LB-k (antibody, human IgG1, kappa, V domains shown)
VH: QDQLVQSGAEVKKPGASVKVSCKASGFNIKDTRIQWVRQAPGQGLEWMGRIDPLRGNTKYREKFEGRVTITADTSTNTAYMELSSLRSEDTAVYYCVRSGTLFDFWGQGTLVTVSS
VL: DIQMTQSPSSLSASVGDRVTITCKASQDIHKYIAWYQQKPGQAPRLLIQYTSTLQPGVPSRFSGSGSGTDYTFTISSLQPEDIATYYCLQYDNLRTFGGGTKVEIKR
B12: the binding result in assay [2] is “binds”.

B13: H120-G1d/LB-k (antibody, human IgG1, kappa, V domains shown)
VH: QDQLVQSGAEVKKPGASVKVSCKASGFNIKDTYIQWVRQAPGQGLEWMGRIDPLRGNTKRREKFEGRVTITADTSTNTAYMELSSLRSEDTAVYYCVRSGTLFDFWGQGTLVTVSS
VL: DIQMTQSPSSLSASVGDRVTITCKASQDIHKYIAWYQQKPGQAPRLLIQYTSTLQPGVPSRFSGSGSGTDYTFTISSLQPEDIATYYCLQYDNLRTFGGGTKVEIKR
Take B13: the binding result in assay [1], in assay [2] and in assay [3] was “binds” in each case.

B14: H118-G1d/LB-k (antibody, human IgG1, kappa, V domains shown)
VH: QDQLVQSGAEVKKPGASVKVSCKASGFNIKDTYIQWVRQAPGQGLEWMGRIDPLRGNRKYREKFEGRVTITADTSTNTAYMELSSLRSEDTAVYYCVRSGTLFDFWGQGTLVTVSS
VL: DIQMTQSPSSLSASVGDRVTITCKASQDIHKYIAWYQQKPGQAPRLLIQYTSTLQPGVPSRFSGSGSGTDYTFTISSLQPEDIATYYCLQYDNLRTFGGGTKVEIKR
In the case of B14, the binding result in assay [1], in assay [2] and in assay [3] was “binds” each time.

B15: H119-G1d/LB-k (antibody, human IgG1, kappa, V domains shown)
VH: QDQLVQSGAEVKKPGASVKVSCKASGFNIKDTYIQWVRQAPGQGLEWMGRIDPLRGNTRYREKFEGRVTITADTSTNTAYMELSSLRSEDTAVYYCVRSGTLFDFWGQGTLVTVSS
VL: DIQMTQSPSSLSASVGDRVTITCKASQDIHKYIAWYQQKPGQAPRLLIQYTSTLQPGVPSRFSGSGSGTDYTFTISSLQPEDIATYYCLQYDNLRTFGGGTKVEIKR
For the molecule B15, in assay [2], the binding entry is on record as “binds”.

B16: H117-G1d/LB-k (antibody, human IgG1, kappa, V domains shown)
VH: QDQLVQSGAEVKKPGASVKVSCKASGFNIKDTYIQWVRQAPGQGLEWMGRIDPLRGRTKYREKFEGRVTITADTSTNTAYMELSSLRSEDTAVYYCVRSGTLFDFWGQGTLVTVSS
VL: DIQMTQSPSSLSASVGDRVTITCKASQDIHKYIAWYQQKPGQAPRLLIQYTSTLQPGVPSRFSGSGSGTDYTFTISSLQPEDIATYYCLQYDNLRTFGGGTKVEIKR
For the molecule B16, the binding entry in assay [1], in assay [2] and in assay [3] was “binds” in each case.

B17: H132-G1d/LB-k (antibody, human IgG1, kappa, V domains shown)
VH: QDQLVQSGAEVKKPGASVKVSCKASGFNIKDTYIQWVRQAPGQGLEWMGRIDPLRRNTKYREKFEGRVTITADTSTNTAYMELSSLRSEDTAVYYCVRSGRLFDFWGQGTLVTVSS
VL: DIQMTQSPSSLSASVGDRVTITCKASQDIHKYIAWYQQKPGQAPRLLIQYTSTLQPGVPSRFSGSGSGTDYTFTISSLQPEDIATYYCLQYDNLRTFGGGTKVEIKR
Take B17: the binding entry in assay [1], in assay [2] and in assay [3] was “binds” in each case.

B18: mouse hybridoma-derived EP27 (antibody, V domains shown)
VH: EDQLQQSGAELVKPGASVKLSCTASGFNIKDTYIQWVKLRPEQGLEWIGRIDPLNGNTKYVPKFQGKATITADTSSNTAYLQLSSLTSEDTAVYYCVRSGTLFDFWGQGTTLTVSS
VL: DIQMTQSPSSLSASLGGKVTITCKASQDIHKYIAWYQHKPGKGPRLLIQYTSTLQPGIPSRFSGSGSGRDYSFSISNLEPEDIATYYCLQYDNLRTFGGGTKLEIK
As for B18, the binding entry in assay [5] and in assay [6] was “binds” each time.
